Results as given in article doi:10.1101/2022.10.06.511240 (bioRxiv, 2022).
These are yes or no findings as the source states them, for the method shown. For part of these data: In cells and extracts the contact can be indirect. Some results given as binding are weak or reduced against the parent protein; the word gives no strength. For part of these data: Tags and fused reporters may be left off the sequences shown.

Legend:
[1] = target: T1, CPK6 bait of the DUAL membrane split-ubiquitin system (Arabidopsis thaliana) (UniProt Q38872); experiment: two-hybrid
T1 sequence: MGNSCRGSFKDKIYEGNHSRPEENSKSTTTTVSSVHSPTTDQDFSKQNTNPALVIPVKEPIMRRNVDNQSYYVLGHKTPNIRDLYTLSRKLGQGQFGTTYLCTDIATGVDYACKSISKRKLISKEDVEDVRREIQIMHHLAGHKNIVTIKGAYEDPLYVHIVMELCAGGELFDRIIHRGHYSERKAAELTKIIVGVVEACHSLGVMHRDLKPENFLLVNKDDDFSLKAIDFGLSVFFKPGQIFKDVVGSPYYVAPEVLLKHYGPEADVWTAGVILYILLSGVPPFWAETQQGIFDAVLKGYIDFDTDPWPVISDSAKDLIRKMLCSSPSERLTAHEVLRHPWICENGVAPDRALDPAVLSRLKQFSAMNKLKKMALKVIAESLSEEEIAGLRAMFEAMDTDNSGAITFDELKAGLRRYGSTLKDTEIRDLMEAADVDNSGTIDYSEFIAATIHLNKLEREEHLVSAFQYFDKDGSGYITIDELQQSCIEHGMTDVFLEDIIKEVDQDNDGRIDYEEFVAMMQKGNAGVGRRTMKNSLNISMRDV

[2] = target: T2, cYFP-CPK6 (Arabidopsis thaliana) (UniProt Q38872); experiment: split reporter
T2 sequence: T1 sequence

CPK25 = target: T3, CPK25 (UniProt Q9SJ61); experiment: two-hybrid
T3 sequence: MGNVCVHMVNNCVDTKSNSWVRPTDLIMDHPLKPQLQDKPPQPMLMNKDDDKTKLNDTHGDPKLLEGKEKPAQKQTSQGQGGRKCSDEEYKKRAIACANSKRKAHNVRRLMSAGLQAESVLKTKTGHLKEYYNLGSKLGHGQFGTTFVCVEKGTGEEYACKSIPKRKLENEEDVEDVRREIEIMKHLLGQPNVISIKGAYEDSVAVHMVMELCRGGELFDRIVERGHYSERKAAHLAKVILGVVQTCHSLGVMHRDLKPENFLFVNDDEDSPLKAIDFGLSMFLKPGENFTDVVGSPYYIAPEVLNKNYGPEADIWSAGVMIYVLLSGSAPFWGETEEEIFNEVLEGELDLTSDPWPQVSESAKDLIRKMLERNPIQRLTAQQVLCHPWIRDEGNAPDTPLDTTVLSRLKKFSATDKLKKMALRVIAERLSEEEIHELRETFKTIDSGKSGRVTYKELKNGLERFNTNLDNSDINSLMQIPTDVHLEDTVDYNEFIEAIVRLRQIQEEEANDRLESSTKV

CPK5 = target: T4, CPK5 (UniProt Q38871); experiment: two-hybrid
T4 sequence: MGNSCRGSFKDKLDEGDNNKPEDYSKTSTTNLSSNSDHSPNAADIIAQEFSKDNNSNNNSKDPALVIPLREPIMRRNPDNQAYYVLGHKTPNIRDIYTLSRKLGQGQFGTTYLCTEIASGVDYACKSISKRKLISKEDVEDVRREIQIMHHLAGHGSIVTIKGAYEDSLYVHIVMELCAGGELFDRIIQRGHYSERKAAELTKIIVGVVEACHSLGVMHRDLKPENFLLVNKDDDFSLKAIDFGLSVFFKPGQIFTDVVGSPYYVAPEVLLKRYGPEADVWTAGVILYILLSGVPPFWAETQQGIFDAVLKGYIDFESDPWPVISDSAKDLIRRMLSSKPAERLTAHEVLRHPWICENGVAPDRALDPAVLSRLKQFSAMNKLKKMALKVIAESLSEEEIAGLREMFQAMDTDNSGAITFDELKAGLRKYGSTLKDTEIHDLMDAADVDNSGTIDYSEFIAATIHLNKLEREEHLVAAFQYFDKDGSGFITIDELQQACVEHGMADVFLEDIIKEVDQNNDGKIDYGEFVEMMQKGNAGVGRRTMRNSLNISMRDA

CPK26 = target: T5, CPK26 (UniProt Q9SZM3); experiment: two-hybrid
T5 sequence: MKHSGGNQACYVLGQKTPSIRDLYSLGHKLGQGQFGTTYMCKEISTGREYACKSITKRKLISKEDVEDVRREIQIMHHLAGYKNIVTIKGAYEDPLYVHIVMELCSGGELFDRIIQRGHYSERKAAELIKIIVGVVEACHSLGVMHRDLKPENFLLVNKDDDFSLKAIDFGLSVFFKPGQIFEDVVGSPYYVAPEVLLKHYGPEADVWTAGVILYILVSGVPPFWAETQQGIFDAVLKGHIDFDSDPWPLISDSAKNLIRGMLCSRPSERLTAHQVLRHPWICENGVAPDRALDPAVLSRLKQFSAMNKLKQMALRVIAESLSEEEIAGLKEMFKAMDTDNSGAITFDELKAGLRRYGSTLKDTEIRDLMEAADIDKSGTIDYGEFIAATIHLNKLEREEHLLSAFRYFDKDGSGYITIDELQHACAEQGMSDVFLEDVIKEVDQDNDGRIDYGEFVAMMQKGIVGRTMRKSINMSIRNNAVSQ

[3] = target: T6, pGBD-CPK6 (Arabidopsis thaliana) (UniProt Q38872); experiment: two-hybrid
T6 sequence: T1 sequence

B1: NRT1.1 prey of the DUAL membrane split-ubiquitin system (protein, UniProt Q05085 1-590)
chain: MSLPETKSDDILLDAWDFQGRPADRSKTGGWASAAMILCIEAVERLTTLGIGVNLVTYLTGTMHLGNATAANTVTNFLGTSFMLCLLGGFIADTFLGRYLTIAIFAAIQATGVSILTLSTIIPGLRPPRCNPTTSSHCEQASGIQLTVLYLALYLTALGTGGVKASVSGFGSDQFDETEPKERSKMTYFFNRFFFCINVGSLLAVTVLVYVQDDVGRKWGYGICAFAIVLALSVFLAGTNRYRFKKLIGSPMTQVAAVIVAAWRNRKLELPADPSYLYDVDDIIAAEGSMKGKQKLPHTEQFRSLDKAAIRDQEAGVTSNVFNKWTLSTLTDVEEVKQIVRMLPIWATCILFWTVHAQLTTLSVAQSETLDRSIGSFEIPPASMAVFYVGGLLLTTAVYDRVAIRLCKKLFNYPHGLRPLQRIGLGLFFGSMAMAVAALVELKRLRTAHAHGPTVKTLPLGFYLLIPQYLIVGIGEALIYTGQLDFFLRECPKGMKGMSTGLLLSTLALGFFFSSVLVTIVEKFTGKAHPWIADDLNKGRLYNFYWLVAVLVALNFLIFLVFSKWYVYKEKRLAEVGIELDDEPSIPMGH
For B1, the binding [1] was “binds”.

B2: nYFP-NRT1.1 (protein, UniProt Q05085 1-590)
chain: B1 chain
B2 was tested, and the binding [2] was “binds”.

B3: pGAD-NRT1.1 (protein, UniProt Q05085 1-590)
chain: B1 chain
B3 was tested, and the binding (CPK25) was “no binding”, the binding (CPK5) was “no binding” and the binding (CPK26) was “no binding”. For the same binder, the binding [3] was “binds”.
